The target in test [1] is His-SUMO_Glp (Corynebacterium glutamicum ATCC13032). The experiment in a line: BLI; His-SUMO_Glp variants immobilised on Ni-NTA biosensors; FtsZ 10 μM in polymerization buffer (25 mM Pipes pH 6.9, 100 mM KCl, 10 mM MgCl2), pre-incubated with or without 1 mM GTP; 25 °C; both purified. For orientation: Biolayer interferometry detects binding as a change in optical thickness at a sensor tip.

For test [2], the target named is His-SUMO_GlpΔloop (Corynebacterium glutamicum ATCC13032). The test is described as above.

The text below walks through data of PMC10522489, “Eukaryotic-like gephyrin and cognate membrane receptor coordinate corynebacterial cell division and polar elongation” (Nature Microbiology, 2023).

No constants are given. Whether binding was seen depends on the method and setting. For some assays here: A result given as binding can be weak or reduced; the word gives no strength.

B1: FtsZ (purified, in solution) (protein, UniProt P94337 1-442)
chain: MTSPNNYLAKIKVVGVGGGGVNAVNRMIEEGLKGVEFIAVNTDSQALMFSDADVKLDIGREATRGLGAGANPEVGRASAEDHKNEIEETIKGADMVFVTAGEGGGTGTGAAPVVAGIAKKMGALTIGVVTKPFEFEGRRRTRQAEEGIAALKEVCDTLIVIPNDRLLELGDANLSIMEAFRAADEVLHNGVQGITNLITIPGVINVDFADVRSVMSEAGSALMGVGSARGDNRVVSATEQAINSPLLEATMDGATGVLLSFAGGSDLGLMEVNAAASMVRERSDEDVNLIFGTIIDDNLGDEVRVTVIATGFDAARASAAENRRAGISAAPAAEPVQQQVPTTNATLPPEKESIFGGAREENDPYLSRSAGARHRIEETRSGGGLFTTGNDRDYRRDERREDHRDERRDERRDDRSYDRRDDRRDDRRDDRGDDLDVPSFLQ
For B1, the binding entry was “binds” in test [1] and “no binding (tested: 10 μM)” in test [2].
